Results taken from the supplement of paper PMC7024190.
Structures can show the parent of a compound that is named as a salt. The list shows a part of the results. This data set is noisy: repeats of one test often differ as much as different tests do.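 Human embryonic kidney cells were transiently transfected with a plasmid bearing a Renilla luciferase gene under the HSV-TK promoter. This first-round screen tests roughly ten thousand compounds for ones that increase reporter output.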

system: HEK 293FT; assay: log relative Renilla luciferase luminescence (reporter expression vs reference, reference not stated) (log (base not stated)); higher = higher recombinant reporter expression; settings: 10 µM; time after transfection 48 h

Row | Compound | log
1 | CCC(=O)NCC[C@@H]1CCc2ccc3c(c21)CCO3 [ramelteon] | -0.111
2 | CC[C@H](/C=C/[C@@H](C)[C@H]1CC[C@H]2[C@@H]3CCC4=CC(=O)CC[C@]4(C)[C@H]3CC[C@]12C)C(C)C [stigmasta-4,22-dien-3-one] | 0.0546
3 | CNC(=O)c1c(I)c(NC(C)=O)c(I)c(C(=O)O)c1I [iothalamic acid] | 0.2
4 | COc1ccc(-c2coc3cc(O)cc(O)c3c2=O)cc1 [biochanin a] | 0.106
5 | CC(=O)O[C@H]1C[C@@H](OC(C)=O)C(C)(C)C2CC(=O)[C@]3(C)C(CC[C@@]4(C)[C@H](C(=O)O)OC(=O)C5OC543)[C@]21C (stereo not given in full) [deacetoxy(7)-7-oxokhivorinic acid] | 0.201
6 | CCCCCCCCCCCCCCCCC(C(=O)O)C(O)(CC(=O)O)C(=O)O (stereo not given) [agaric acid] | 0.256
7 | CCOC(=O)C1=C(C)NC(C)=C(C(=O)OC)C1c1cccc([N+](=O)[O-])c1 (stereo not given) [nitrendipine] | 0.185
8 | CC1(C)S[C@@H]2[C@H](N3C(=O)[C@@H](c4ccccc4)NC3(C)C)C(=O)N2[C@H]1C(=O)O [hetacillin potassium] | 0.053
9 | CCn1cc(C(=O)O)c(=O)c2cc(F)c(N3CCNCC3)cc21 [norfloxacin] | 0.00408
10 | O=c1c(O)c(-c2ccc(O)c(O)c2)oc2c(O[C@@H]3O[C@H](CO)[C@@H](O)[C@H](O)[C@H]3O)c(O)cc(O)c12 [gossypin] | 0.0707
11 | O=C(c1ccc(OCCN2CCCCC2)cc1)c1c(-c2ccc(O)cc2)sc2cc(O)ccc12 [raloxifene hydrochloride] | 0.398
12 | CC(CN1c2ccccc2Sc2ccccc21)N(C)C (stereo not given) [promethazine hydrochloride] | -0.0474
13 | C=C1[C@H]2CC[C@@]3(C)[C@H](c4ccoc4)OC(=O)C[C@]13O[C@H]1C[C@H](O)C(C)(C)[C@H](CC(=O)OC)[C@]12C [3-deoxy-3beta-hydroxyangolensic acid methyl ester] | 0.18
14 | O=C(CCCCCCCCCCCCC1CCCC1)Nc1ccc(S(=O)(=O)c2ccc(NC(=O)CCCCCCCCCCCCC3CCCC3)cc2)cc1 [chaulmosulfone] | -0.13
15 | NS(=O)(=O)c1cc2c(cc1C(F)(F)F)NC(Cc1ccccc1)NS2(=O)=O (stereo not given) [bendroflumethiazide] | 0.126
16 | S=P(N1CC1)(N1CC1)N1CC1 [thiotepa] | 0.0682
17 | CC(C)[C@@H]1CC[C@@H](C)C[C@H]1OC(=O)c1ccccc1 [menthyl benzoate] | -0.0304
18 | Nc1nc(N)nc(-c2cc(Cl)ccc2Cl)n1 [irsogladine maleate] | 0.0791
19 | CCN1CCCC1CNC(=O)c1cc(S(=O)(=O)CC)c(N)cc1OC (stereo not given) [amisulpride] | 0.00103
20 | Cc1cc(O)cc(=O)o1 [4-hydroxy-6-methylpyran-2-one] | 0.209
21 | CC(C)[C@H]1CC[C@H](C(=O)N[C@H](Cc2ccccc2)C(=O)O)CC1 [nateglinide] | -0.0474
22 | COC(=O)/C(=C1/OC(=O)C(c2ccccc2)=C1O)c1ccccc1 [vulpinic acid] | -0.623
23 | CC(=O)Oc1cccc(C(=O)O)c1OC(C)=O [dipyrocetyl] | 0.071

Row | Compound | log
24 | COC(=O)[C@@H]1OC(=O)C2OC23[C@@]1(C)CCC1[C@]2(C)C(C[C@@H](O)[C@]13C)C(C)(C)[C@H](OC(C)=O)C[C@@H]2OC(C)=O (stereo not given in full) [desacetyl (7)khivorinic acid, methyl ester] | 0.00612
25 | COc1ccc(C(C)=O)c(O)c1 [paeonol] | 0.0642
26 | CC(C)c1nc(CN(C)C(=O)N[C@H](C(=O)N[C@@H](Cc2ccccc2)C[C@H](O)[C@H](Cc2ccccc2)NC(=O)OCc2cncs2)C(C)C)cs1 [ritonavir] | -0.114
27 | COc1ccccc1OCCNCC(O)COc1cccc2[nH]c3ccccc3c12 (stereo not given) [carvedilol] | 0.0664
28 | COc1ccccc1OCCNCC(O)COc1cccc2[nH]c3ccccc3c12 (stereo not given) [carvedilol phosphate] | 0.133
29 | CC1CCc2cc(F)cc3c(=O)c(C(=O)O)cn1c23 (stereo not given) [flumequine] | 0.0299
30 | COc1cc2c(cc1OC)-c1c(oc3cc(O)cc(O)c3c1=O)CO2 [apotoxicarol] | -0.0745
31 | CCCCOc1ccc(OCCCN2CCOCC2)cc1 [pramoxine hydrochloride] | 0.105
32 | CC(CCc1ccc(O)cc1)NCCc1ccc(O)c(O)c1 (stereo not given) [dobutamine hydrochloride] | 0.114
33 | O=c1cc(-c2ccccc2)oc2ccc(O)cc12 [6-hydroxyflavone] | 0.262
34 | CCOc1nc2cccc(C(=O)OC(C)OC(=O)OC3CCCCC3)c2n1Cc1ccc(-c2ccccc2-c2nn[nH]n2)cc1 (stereo not given) [candesartan cilextil] | 0.275
35 | Nc1ccc(S(N)(=O)=O)cc1 [sulfanilamide] | 0.0919
36 | CC1CCN(CCCC(=O)c2ccc(F)cc2)CC1 [melperone hydrochloride] | -0.164
37 | Nc1ncnc2c1ncn2[C@H]1C[C@H](O)[C@@H](CO)O1 [deoxyadenosine] | 0.0621
38 | COc1ccc2c(c1)OCC(Cc1ccc(OC)c(OC)c1)C2=O (stereo not given) [deoxysappanone b trimethyl ether] | -0.00397
39 | COc1ccc([C@H]2Oc3cc(OC)cc(OC)c3C[C@H]2O)cc1 [epiafzelechin trimethyl ether] | -0.0105
40 | CCC(C)(C)c1ccc(CC(C)CN2C[C@@H](C)O[C@@H](C)C2)cc1 (stereo not given in full) [amorolfine hydrochloride] | 0.0663
41 | CC[C@]12CCCN3CCc4c(n(c5ccccc45)[C@@](O)(C(=O)OC)C1)[C@@H]32 [vincamine] | 0.117
42 | NC(=O)C1(N2CCCCC2)CCN(CCCC(=O)c2ccc(F)cc2)CC1 [pipamperone] | -0.0546
43 | CCCCCCCCCCCCCCCC[N+](C)(C)C [cetrimonium bromide] | -1.75
44 | O=C(O)CCc1nc2ccccc2[nH]1 [procodazole] | 0.125
45 | C[C@@H]1CC2C3C[C@H](F)C4=CC(=O)C=C[C@]4(C)[C@@]3(F)[C@@H](O)C[C@]2(C)[C@@]1(O)C(=O)COC(=O)C(C)(C)C (stereo not given in full) [flumethazone pivalate] | 0.0583

Numbers 20–23 from above:
Row | Compound | log
20 | Cc1cc(O)cc(=O)o1 [4-hydroxy-6-methylpyran-2-one] | 0.209
21 | CC(C)[C@H]1CC[C@H](C(=O)N[C@H](Cc2ccccc2)C(=O)O)CC1 [nateglinide] | -0.0474
22 | COC(=O)/C(=C1/OC(=O)C(c2ccccc2)=C1O)c1ccccc1 [vulpinic acid] | -0.623
23 | CC(=O)Oc1cccc(C(=O)O)c1OC(C)=O [dipyrocetyl] | 0.071
